pIC50: −log10 of the molar value. Some of these results come from one statement about several compounds together.
Target: truncated form of human NaV 1.8 with full channel activity (expressed in HEK cells) (Homo sapiens, UniProt Q9Y5Y9)
Assay: E-VIPR assay detecting and measuring NaV inhibition properties (electrical stimulation, membrane potential FRET dyes)
Format: cell-based
Settings: HEK cells expressing truncated human NaV 1.8, KIR2.1 BacMam; 11-point dose response; 30 min compound incubation; stimulation 10 Hz for 10 s; read-out: measured IC50 value in the E-VIPR Assay

The chains behind the UniProt entries cited, without tags or fusion partners. Residues count along the entry.
UniProt Q9Y5Y9, 126-1722 limits assumed: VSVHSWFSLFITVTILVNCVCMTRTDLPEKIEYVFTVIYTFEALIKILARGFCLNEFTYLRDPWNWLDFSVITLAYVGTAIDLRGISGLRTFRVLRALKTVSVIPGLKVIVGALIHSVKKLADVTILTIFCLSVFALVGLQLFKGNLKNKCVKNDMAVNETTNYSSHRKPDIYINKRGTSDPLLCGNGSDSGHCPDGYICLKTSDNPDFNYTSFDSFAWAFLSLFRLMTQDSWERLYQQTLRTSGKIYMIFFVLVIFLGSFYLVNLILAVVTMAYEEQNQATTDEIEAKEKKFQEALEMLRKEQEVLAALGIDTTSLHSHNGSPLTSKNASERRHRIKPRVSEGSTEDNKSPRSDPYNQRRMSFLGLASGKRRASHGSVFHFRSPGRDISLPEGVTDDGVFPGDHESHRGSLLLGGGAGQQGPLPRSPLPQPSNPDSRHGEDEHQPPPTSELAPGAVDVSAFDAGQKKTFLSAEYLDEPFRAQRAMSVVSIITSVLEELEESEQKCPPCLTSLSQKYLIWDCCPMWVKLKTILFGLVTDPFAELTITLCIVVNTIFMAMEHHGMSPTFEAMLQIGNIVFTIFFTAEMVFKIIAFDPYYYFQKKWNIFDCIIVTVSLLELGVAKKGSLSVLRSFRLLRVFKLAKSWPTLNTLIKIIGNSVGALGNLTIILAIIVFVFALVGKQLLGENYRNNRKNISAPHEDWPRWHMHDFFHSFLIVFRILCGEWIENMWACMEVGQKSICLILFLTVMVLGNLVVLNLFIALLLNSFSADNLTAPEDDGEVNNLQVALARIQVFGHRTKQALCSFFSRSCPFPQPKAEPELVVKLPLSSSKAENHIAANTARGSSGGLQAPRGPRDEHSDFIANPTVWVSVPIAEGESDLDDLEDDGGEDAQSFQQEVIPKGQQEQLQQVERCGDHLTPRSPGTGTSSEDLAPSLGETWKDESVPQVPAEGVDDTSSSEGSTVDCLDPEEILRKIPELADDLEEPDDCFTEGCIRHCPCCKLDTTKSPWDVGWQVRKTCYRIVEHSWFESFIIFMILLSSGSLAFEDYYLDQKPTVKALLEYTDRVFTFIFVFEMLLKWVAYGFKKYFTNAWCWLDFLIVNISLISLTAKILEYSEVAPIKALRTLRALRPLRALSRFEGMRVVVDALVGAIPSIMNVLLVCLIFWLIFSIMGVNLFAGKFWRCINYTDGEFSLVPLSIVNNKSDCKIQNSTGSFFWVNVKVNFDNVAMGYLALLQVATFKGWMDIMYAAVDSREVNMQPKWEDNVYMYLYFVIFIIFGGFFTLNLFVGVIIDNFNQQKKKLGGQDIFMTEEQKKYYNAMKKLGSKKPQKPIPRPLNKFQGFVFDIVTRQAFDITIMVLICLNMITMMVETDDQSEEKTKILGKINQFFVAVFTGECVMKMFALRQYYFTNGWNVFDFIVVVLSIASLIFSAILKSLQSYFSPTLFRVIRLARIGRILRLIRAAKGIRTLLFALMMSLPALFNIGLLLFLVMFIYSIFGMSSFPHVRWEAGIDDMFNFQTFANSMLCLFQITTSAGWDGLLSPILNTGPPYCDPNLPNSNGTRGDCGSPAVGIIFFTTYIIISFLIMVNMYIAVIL

Compound	pIC50
Cc1c(Oc2ncc(C(F)(F)F)c(C)c2-c2cc(=O)c3c(-c4nnn(C)n4)nccc3[nH]2)ccc(F)c1F [Compound 247, 2-[2-(3,4-difluoro-2-methyl-phenoxy)-4-methyl-5-(trifluoromethyl)-3-pyridyl]-5-(2-methyltetrazol-5-yl)-1H-1,6-naphthyridin-4-one]	> 6.30
COc1c(Oc2cc(C(F)(F)F)c(F)cc2-c2cc(=O)c3c(-c4nnn[nH]4)nccc3[nH]2)ccc(F)c1F [Compound 166, 2-[2-(3,4-difluoro-2-methoxy-phenoxy)-5-fluoro-4-(trifluoromethyl)phenyl]-5-(1H-tetrazol-5-yl)-1H-1,6-naphthyridin-4-one]	> 6.30
CC(C)(C)c1ccc(-c2cc(=O)c3c(C(N)=O)nccc3[nH]2)c(C2CCC(F)(F)CC2)c1 [Compound 126, 2-[4-tert-butyl-2-(4,4-difluorocyclohexyl)phenyl]-4-oxo-1H-1,6-naphthyridine-5-carboxamide]	> 6.30
COc1cccnc1-c1nccc2[nH]c(-c3c(Oc4ccc(F)c(F)c4C)ncc(C(F)(F)F)c3C)cc(=O)c12 [Compound 225, 2-[2-(3,4-difluoro-2-methyl-phenoxy)-4-methyl-5-(trifluoromethyl)-3-pyridyl]-5-(3-methoxy-2-pyridyl)-1H-1,6-naphthyridin-4-one]	> 6.30
Cc1cc(F)ccc1Oc1ncc(Cl)c(C)c1-c1cc(=O)c2c(C(N)=O)nccc2[nH]1 [Compound 40, 2-[5-chloro-2-(4-fluoro-2-methyl-phenoxy)-4-methyl-3-pyridyl]-4-oxo-1H-1,6-naphthyridine-5-carboxamide]	> 6.30
Cc1cc(F)ccc1Oc1ncc(C)c(C)c1-c1cc(=O)c2c(C(N)=O)nccc2[nH]1 [Compound 25, 2-[2-(4-fluoro-2-methyl-phenoxy)-4,5-dimethyl-3-pyridyl]-4-oxo-1H-1,6-naphthyridine-5-carboxamide]	> 6.30
NC(=O)c1nccc2[nH]c(-c3cnc(C4CC(F)(F)C4)cc3C3CCC(C(F)(F)F)CC3)cc(=O)c12 (stereo not shown) [Compound 104, 2-[6-(3,3-difluorocyclobutyl)-4-[4-(trifluoromethyl)cyclohexyl]-3-pyridyl]-4-oxo-1H-1,6-naphthyridine-5-carboxamide]	> 6.30
Cc1cc(-c2cc(=O)c3c(F)cccc3[nH]2)c(N2CCCC(F)(F)CC2)nc1C(F)(F)F [Compound 74, 2-[2-(4,4-difluoroazepan-1-yl)-5-methyl-6-(trifluoromethyl)-3-pyridyl]-5-fluoro-1H-quinolin-4-one]	> 6.30
Cn1ccnc1-c1nccc2[nH]c(-c3cnc(C4CC(F)(F)C4)cc3C3CCC(C(F)(F)F)CC3)cc(=O)c12 (stereo not shown) [Compound 234, 2-[6-(3,3-difluorocyclobutyl)-4-[4-(trifluoromethyl)cyclohexyl]-3-pyridyl]-5-(1-methylimidazol-2-yl)-1H-1,6-naphthyridin-4-one]	> 6.30
Cc1cc(F)ccc1Oc1cnc(C(F)(F)F)c(C)c1-c1cc(=O)c2c(C(N)=O)nccc2[nH]1 [Compound 48, 2-[5-(4-fluoro-2-methyl-phenoxy)-3-methyl-2-(trifluoromethyl)-4-pyridyl]-4-oxo-1H-1,6-naphthyridine-5-carboxamide]	> 6.30
NC(=O)c1nccc2[nH]c(-c3cc(C4(C(F)(F)F)CCC4)nn3C3CCC(F)(F)CC3)cc(=O)c12 [Compound 356, 2-[2-(4,4-difluorocyclohexyl)-5-[1-(trifluoromethyl)cyclobutyl]pyrazol-3-yl]-4-oxo-1H-1,6-naphthyridine-5-carboxamide]	> 6.30
COc1c(Oc2cc(C(F)(F)F)c(F)cc2-c2cc(=O)c3c(C(N)=O)cncc3[nH]2)ccc(F)c1F [Compound 165, 2-[2-(3,4-difluoro-2-methoxy-phenoxy)-5-fluoro-4-(trifluoromethyl)phenyl]-4-oxo-1H-1,7-naphthyridine-5-carboxamide]	> 6.30
CO[C@H]1C[C@H](Oc2nccc3[nH]c(-c4c(Oc5ccc(F)c(F)c5C)ncc(C(F)(F)F)c4C)cc(=O)c23)C1 [Compound 195, 2-[2-(3,4-difluoro-2-methyl-phenoxy)-4-methyl-5-(trifluoromethyl)-3-pyridyl]-5-(3-methoxycyclobutoxy)-1H-1,6-naphthyridin-4-one]	> 6.30
Cc1c(Oc2cc(C(F)(F)F)c(F)cc2-c2cc(=O)c3c(C(N)=O)nccc3[nH]2)ccc(F)c1F [Compound 156, 2-[2-(3,4-difluoro-2-methyl-phenoxy)-5-fluoro-4-(trifluoromethyl)phenyl]-4-oxo-1H-1,6-naphthyridine-5-carboxamide]	> 6.30
Cc1c(Oc2ncc(C(F)(F)F)c(C)c2-c2cc(=O)c3c(-n4cccn4)nccc3[nH]2)ccc(F)c1F [Compound 197, 2-[2-(3,4-difluoro-2-methyl-phenoxy)-4-methyl-5-(trifluoromethyl)-3-pyridyl]-5-pyrazol-1-yl-1H-1,6-naphthyridin-4-one]	> 6.30
Cc1c(Oc2ncc(C(F)(F)F)c(C)c2-c2cc(=O)c3c(C(=O)N[C@H](CO)C(C)C)nccc3[nH]2)ccc(F)c1F [Compound 252, 2-[2-(3,4-difluoro-2-methyl-phenoxy)-4-methyl-5-(trifluoromethyl)-3-pyridyl]-N-[(1S)-1-(hydroxymethyl)-2-methyl-propyl]-4-oxo-1H-1,6-naphthyridine-5-carboxamide]	> 6.30

Compound	pIC50
NC(=O)c1nccc2[nH]c(-c3cnc(C4CC(F)(F)C4)nc3C3CCC(C(F)(F)F)CC3)cc(=O)c12 (stereo not shown) [Compound 119, 2-[2-(3,3-difluorocyclobutyl)-4-[4-(trifluoromethyl)cyclohexyl]pyrimidin-5-yl]-4-oxo-1H-1,6-naphthyridine-5-carboxamide]	> 6.30
CC(C)(C)c1nc(C2CCC(F)(F)CC2)c(-c2cc(=O)c3c(C(N)=O)nccc3[nH]2)cc1Cl [Compound 115, 2-[6-tert-butyl-5-chloro-2-(4,4-difluorocyclohexyl)-3-pyridyl]-4-oxo-1H-1,6-naphthyridine-5-carboxamide]	> 6.30
Cc1c(Oc2ncc(C(F)(F)F)c(C)c2-c2cc(=O)c3c(C(N)=O)cccc3[nH]2)ccc(F)c1F [Compound 140, 2-[2-(3,4-difluoro-2-methyl-phenoxy)-4-methyl-5-(trifluoromethyl)-3-pyridyl]-4-oxo-1H-quinoline-5-carboxamide]	> 6.30
CC1CCN(c2nc3ccccc3cc2-c2cc(=O)c3c(C(N)=O)nccc3[nH]2)CC1 [Compound 289, 2-[2-(4-methyl-1-piperidyl)-3-quinolyl]-4-oxo-1H-1,6-naphthyridine-5-carboxamide]	> 6.30
COc1cc(F)ccc1Oc1cc(C(C)(C)C)cc(C)c1-c1[nH]c2ccccc2c(=O)c1C(O)CO (stereo not shown) [Compound 336, 2-[4-tert-butyl-2-(4-fluoro-2-methoxy-phenoxy)-6-methyl-phenyl]-3-(1,2-dihydroxyethyl)-1H-quinolin-4-one]	> 6.30
COc1cc(F)ccc1Oc1cc(C(C)(C)C)cc(C)c1-c1cc(=O)c2ccccc2[nH]1 [Compound 27, 2-[4-tert-butyl-2-(4-fluoro-2-methoxy-phenoxy)-6-methyl-phenyl]-1H-quinolin-4-one]	> 6.30
Cc1cn(C)c(-c2nccc3[nH]c(-c4c(Oc5ccc(F)c(F)c5C)ncc(C(F)(F)F)c4C)cc(=O)c23)n1 [Compound 219, 2-[2-(3,4-difluoro-2-methyl-phenoxy)-4-methyl-5-(trifluoromethyl)-3-pyridyl]-5-(1,4-dimethylimidazol-2-yl)-1H-1,6-naphthyridin-4-one]	> 6.30
O=c1cc(-c2cc3ccccc3nc2N2CCCC(F)(F)CC2)[nH]c2cccnc12 [Compound 304, 2-[2-(4,4-difluoroazepan-1-yl)-3-quinolyl]-1H-1,5-naphthyridin-4-one]	> 6.30
COc1cc(F)ccc1Oc1cc(C(C)(C)C)cc(C)c1-c1cc(=O)c2cnccc2[nH]1 [Compound 31, 2-[4-tert-butyl-2-(4-fluoro-2-methoxy-phenoxy)-6-methyl-phenyl]-1H-1,6-naphthyridin-4-one]	> 6.30
COc1c(Oc2cc(C(F)(F)F)c(F)cc2-c2cc(=O)c3c(-c4nccn4C)nccc3[nH]2)ccc(F)c1F [Compound 218, 2-[2-(3,4-difluoro-2-methoxy-phenoxy)-5-fluoro-4-(trifluoromethyl)phenyl]-5-(1-methylimidazol-2-yl)-1H-1,6-naphthyridin-4-one]	> 6.30
Cc1c(Oc2ncc(C(F)(F)F)c(C)c2-c2cc(=O)c3c(C(=O)N[C@@H](CCO)c4ccccc4)nccc3[nH]2)ccc(F)c1F [Compound 266, 2-[2-(3,4-difluoro-2-methyl-phenoxy)-4-methyl-5-(trifluoromethyl)-3-pyridyl]-N-[(1S)-3-hydroxy-1-phenyl-propyl]-4-oxo-1H-1,6-naphthyridine-5-carboxamide]	> 6.30
Cc1c(Oc2ncc(C(F)(F)F)c(C)c2-c2cc(=O)c3c(-c4ncc[nH]4)nccc3[nH]2)ccc(F)c1F [Compound 250, 2-[2-(3,4-difluoro-2-methyl-phenoxy)-4-methyl-5-(trifluoromethyl)-3-pyridyl]-5-(1H-imidazol-2-yl)-1H-1,6-naphthyridin-4-one]	> 6.30
Cc1cn(C)nc1-c1nccc2[nH]c(-c3c(Oc4ccc(F)c(F)c4C)ncc(C(F)(F)F)c3C)cc(=O)c12 [Compound 220, 2-[2-(3,4-difluoro-2-methyl-phenoxy)-4-methyl-5-(trifluoromethyl)-3-pyridyl]-5-(1,4-dimethylpyrazol-3-yl)-1H-1,6-naphthyridin-4-one]	> 6.30
Cc1c(C2(C(F)(F)F)CCCC2)nn(C2CCC(F)(F)CC2)c1-c1cc(=O)c2c(C(N)=O)nccc2[nH]1 [Compound 369, 2-[2-(4,4-difluorocyclohexyl)-4-methyl-5-[1-(trifluoromethyl)cyclopentyl]pyrazol-3-yl]-4-oxo-1H-1,6-naphthyridine-5-carboxamide]	> 6.30
COc1c(Oc2cc(C(F)(F)F)c(F)cc2-c2[nH]c3ccnc(C(N)=O)c3c(=O)c2OC)ccc(F)c1F [Compound 328, 2-[2-(3,4-difluoro-2-methoxy-phenoxy)-5-fluoro-4-(trifluoromethyl)phenyl]-3-methoxy-4-oxo-1H-1,6-naphthyridine-5-carboxamide]	> 6.30
